The source of these data is paper doi:10.1101/032243.

The target in this test is T1, DISC1 (as used in the co-IP of Fig. S3D) (UniProt Q811T9).
T1 sequence: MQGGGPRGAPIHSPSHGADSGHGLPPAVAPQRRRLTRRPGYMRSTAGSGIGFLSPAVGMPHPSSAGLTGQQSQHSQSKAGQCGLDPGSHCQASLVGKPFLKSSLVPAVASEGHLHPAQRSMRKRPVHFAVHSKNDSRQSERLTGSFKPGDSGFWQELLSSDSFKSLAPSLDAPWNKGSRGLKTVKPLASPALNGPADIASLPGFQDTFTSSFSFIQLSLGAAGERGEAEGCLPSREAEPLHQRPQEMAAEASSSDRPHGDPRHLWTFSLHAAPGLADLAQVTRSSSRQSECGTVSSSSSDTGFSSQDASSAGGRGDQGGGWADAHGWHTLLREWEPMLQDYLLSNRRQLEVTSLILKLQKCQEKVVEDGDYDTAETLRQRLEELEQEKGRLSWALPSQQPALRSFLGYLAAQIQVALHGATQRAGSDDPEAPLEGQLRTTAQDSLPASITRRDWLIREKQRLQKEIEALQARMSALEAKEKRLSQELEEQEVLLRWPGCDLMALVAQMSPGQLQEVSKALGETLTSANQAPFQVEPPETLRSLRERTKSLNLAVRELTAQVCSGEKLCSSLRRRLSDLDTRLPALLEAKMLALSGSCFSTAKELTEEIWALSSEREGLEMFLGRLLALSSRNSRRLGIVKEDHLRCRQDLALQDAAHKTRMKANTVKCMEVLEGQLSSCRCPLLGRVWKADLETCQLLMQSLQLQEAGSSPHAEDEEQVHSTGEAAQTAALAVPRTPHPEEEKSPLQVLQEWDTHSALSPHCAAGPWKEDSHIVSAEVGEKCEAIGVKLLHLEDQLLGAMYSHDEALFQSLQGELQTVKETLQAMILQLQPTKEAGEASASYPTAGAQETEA
Put plainly: co-IP.

No constants are given. Whether binding was seen depends on the method and setting. Binding seen in cells or lysates may run through a third protein.

As for ERK, the binding result is reported as “no binding”.

With MEK, the binding entry is on record as “no binding”.
